# This is one part of the list.
# Tests used:
# Assay in all cases: glycan array binding signal (z-score within array); higher = stronger binding
# Conditions in all cases: glycan notation: IUPAC condensed, linker removed
# [1] = target: Fuc(a1-2)Gal
# Procedure, shortened: (§1)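 The binding signal is a Z-score computed within each array. Data were drawn from 3228 arrays in the Consortium for Functional Glycomics database, restricted to those with a known protein sequence. Scores were averaged over arrays of the same protein sequence at different concentrations or buffers, and over linkers, and negative values can be taken as non-binding.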
# [2] = target: Fuc(a1-2)Gal(b1-3)GalNAc
# Procedure, shortened: as §1
# [3] = target: Fuc(a1-2)Gal(b1-3)GalNAc(a1-3)[Fuc(a1-2)]Gal(b1-4)Glc
# Procedure, shortened: as §1
# [4] = target: Fuc(a1-2)Gal(b1-3)GalNAc(a1-3)[Fuc(a1-2)]Gal(b1-4)GlcNAc
# Procedure, shortened: as §1
# [5] = target: Fuc(a1-2)Gal(b1-3)GalNAc(b1-3)Gal
# Procedure, shortened: as §1
# [6] = target: Fuc(a1-2)Gal(b1-3)GalNAc(b1-3)Gal(a1-4)Gal(b1-4)Glc
# Procedure, shortened: as §1
# [7] = target: Fuc(a1-2)Gal(b1-3)GalNAc(b1-4)[Neu5Ac(a2-3)]Gal(b1-4)Glc
# Procedure, shortened: as §1
# [8] = target: Fuc(a1-2)Gal(b1-3)GlcNAc
# Procedure, shortened: as §1
# [9] = target: Fuc(a1-2)Gal(b1-3)GlcNAc(b1-2)Man(a1-3)[Fuc(a1-2)Gal(b1-3)GlcNAc(b1-2)Man(a1-6)]Man(b1-4)GlcNAc(b1-4)GlcNAc
# Procedure, shortened: as §1
# [10] = target: Fuc(a1-2)Gal(b1-3)GlcNAc(b1-2)Man(a1-3)[Fuc(a1-2)Gal(b1-3)GlcNAc(b1-2)Man(a1-6)]Man(b1-4)GlcNAc(b1-4)[Fuc(a1-6)]GlcNAc
# Procedure, shortened: as §1
# [11] = target: Fuc(a1-2)Gal(b1-3)GlcNAc(b1-3)Gal(b1-4)Glc
# Procedure, shortened: as §1
# [12] = target: Fuc(a1-2)Gal(b1-3)GlcNAc(b1-3)GalNAc
# Procedure, shortened: as §1
# [13] = target: Fuc(a1-2)Gal(b1-3)GlcNAc(b1-3)[Fuc(a1-2)Gal(b1-3)GlcNAc(b1-6)]GalNAc
# Procedure, shortened: as §1
# [14] = target: Fuc(a1-2)Gal(b1-3)GlcNAc(b1-3)[Gal(b1-4)GlcNAc(b1-6)]Gal(b1-4)Glc
# Procedure, shortened: as §1
# [15] = target: Fuc(a1-2)Gal(b1-3)GlcNAc(b1-3)[Neu5Ac(a2-6)Gal(b1-4)GlcNAc(b1-6)]Gal(b1-4)Glc
# Procedure, shortened: as §1
# [16] = target: Fuc(a1-2)Gal(b1-3)GlcNAc6S
# Procedure, shortened: as §1
# [17] = target: Fuc(a1-2)Gal(b1-3)[Fuc(a1-4)]GlcNAc
# Procedure, shortened: as §1
# [18] = target: Fuc(a1-2)Gal(b1-3)[Fuc(a1-4)]GlcNAc(b1-2)Man(a1-3)[Fuc(a1-2)Gal(b1-3)[Fuc(a1-4)]GlcNAc(b1-2)Man(a1-3)]Man(b1-4)GlcNAc(b1-4)GlcNAc
# Procedure, shortened: as §1
# [19] = target: Fuc(a1-2)Gal(b1-3)[Fuc(a1-4)]GlcNAc(b1-2)Man(a1-3)[Fuc(a1-2)Gal(b1-3)[Fuc(a1-4)]GlcNAc(b1-2)Man(a1-6)]Man(b1-4)GlcNAc(b1-4)[Fuc(a1-6)]GlcNAc(b1-4)[Fuc(a1-6)]GlcNAc
# Procedure, shortened: as §1
# [20] = target: Fuc(a1-2)Gal(b1-3)[Fuc(a1-4)]GlcNAc(b1-3)[Fuc(a1-3)[Gal(b1-4)]GlcNAc(b1-6)]Gal(b1-4)Glc
# Procedure, shortened: as §1
# [21] = target: Fuc(a1-2)Gal(b1-3)[Fuc(a1-4)]GlcNAc(b1-3)[Gal(b1-4)GlcNAc(b1-6)]Gal(b1-4)Glc
# Procedure, shortened: as §1
# [22] = target: Fuc(a1-2)Gal(b1-4)Glc
# Procedure, shortened: as §1
# [23] = target: Fuc(a1-2)Gal(b1-4)Glc6S
# Procedure, shortened: as §1
# [24] = target: Fuc(a1-2)Gal(b1-4)GlcNAc
# Procedure, shortened: as §1
# [25] = target: Fuc(a1-2)Gal(b1-4)GlcNAc(b1-2)Man
# Procedure, shortened: as §1
# [26] = target: Fuc(a1-2)Gal(b1-4)GlcNAc(b1-2)Man(a1-3)[Fuc(a1-2)Gal(b1-4)GlcNAc(b1-2)Man(a1-6)]Man(b1-4)GlcNAc(b1-4)GlcNAc
# Procedure, shortened: as §1
# [27] = target: Fuc(a1-2)Gal(b1-4)GlcNAc(b1-2)Man(a1-3)[Fuc(a1-2)Gal(b1-4)GlcNAc(b1-2)Man(a1-6)]Man(b1-4)GlcNAc(b1-4)[Fuc(a1-6)]GlcNAc
# Procedure, shortened: as §1
# [28] = target: Fuc(a1-2)Gal(b1-4)GlcNAc(b1-2)[Fuc(a1-2)Gal(b1-4)GlcNAc(b1-4)]Man(a1-3)[Fuc(a1-2)Gal(b1-4)GlcNAc(b1-2)Man(a1-6)]Man(b1-4)GlcNAc(b1-4)GlcNAc
# Procedure, shortened: as §1
# [29] = target: Fuc(a1-2)Gal(b1-4)GlcNAc(b1-3)Gal(b1-4)GlcNAc
# Procedure, shortened: as §1
# [30] = target: Fuc(a1-2)Gal(b1-4)GlcNAc(b1-3)Gal(b1-4)GlcNAc(b1-2)Man(a1-3)[Fuc(a1-2)Gal(b1-4)GlcNAc(b1-3)Gal(b1-4)GlcNAc(b1-2)Man(a1-6)]Man(b1-4)GlcNAc(b1-4)GlcNAc
# Procedure, shortened: as §1
# [31] = target: Fuc(a1-2)Gal(b1-4)GlcNAc(b1-3)Gal(b1-4)GlcNAc(b1-3)Gal(b1-4)GlcNAc
# Procedure, shortened: as §1
# [32] = target: Fuc(a1-2)Gal(b1-4)GlcNAc(b1-3)GalNAc
# Procedure, shortened: as §1
# [33] = target: Fuc(a1-2)Gal(b1-4)GlcNAc(b1-3)[Fuc(a1-2)Gal(b1-4)GlcNAc(b1-6)]GalNAc
# Procedure, shortened: as §1
# [34] = target: Fuc(a1-2)Gal(b1-4)GlcNAc(b1-3)[Fuc(a1-3)[Gal(b1-4)]GlcNAc(b1-6)]Gal(b1-4)Glc
# Procedure, shortened: as §1
# [35] = target: Fuc(a1-2)Gal(b1-4)GlcNAc(b1-6)GalNAc
# Procedure, shortened: as §1
# [36] = target: Fuc(a1-2)Gal(b1-4)GlcNAc6S
# Procedure, shortened: as §1
# [37] = target: Fuc(a1-2)Gal(b1-4)[Fuc(a1-3)]GlcNAc
# Procedure, shortened: as §1
# [38] = target: Fuc(a1-2)Gal(b1-4)[Fuc(a1-3)]GlcNAc(b1-2)Man(a1-3)[Fuc(a1-2)Gal(b1-4)[Fuc(a1-3)]GlcNAc(b1-2)Man(a1-6)]Man(b1-4)GlcNAc(b1-4)[Fuc(a1-6)]GlcNAc
# Procedure, shortened: as §1
# [39] = target: Fuc(a1-2)Gal(b1-4)[Fuc(a1-3)]GlcNAc(b1-2)[Fuc(a1-2)Gal(b1-4)[Fuc(a1-3)]GlcNAc(b1-4)]Man(a1-3)[Fuc(a1-2)Gal(b1-4)[Fuc(a1-3)]GlcNAc(b1-2)Man(a1-6)]Man(b1-4)GlcNAc(b1-4)GlcNAc
# Procedure, shortened: as §1
# [40] = target: Fuc(a1-2)Gal(b1-4)[Fuc(a1-3)]GlcNAc(b1-3)Gal(b1-4)[Fuc(a1-3)]GlcNAc
# Procedure, shortened: as §1
# [41] = target: Fuc(a1-2)Gal(b1-4)[Fuc(a1-3)]GlcNAc(b1-3)Gal(b1-4)[Fuc(a1-3)]GlcNAc(b1-3)Gal(b1-4)[Fuc(a1-3)]GlcNAc
# Procedure, shortened: as §1
# [42] = target: Fuc(a1-2)Gal(b1-4)[Fuc(a1-3)]GlcNAc(b1-3)GalNAc
# Procedure, shortened: as §1
# [43] = target: Fuc(a1-2)Gal(b1-4)[Fuc(a1-3)]GlcNAc(b1-3)[Neu5Ac(a2-6)Gal(b1-4)GlcNAc(b1-6)]Gal(b1-4)Glc
# Procedure, shortened: as §1
# [44] = target: Fuc(a1-2)Gal3S(b1-4)GlcNAc
# Procedure, shortened: as §1
# [45] = target: Fuc(a1-2)Gal6S(b1-3)GlcNAc
# Procedure, shortened: as §1
binder,measurement,setting,value
PX15642A-pgi-501-20-501 (Parabacteroides gingivalis) (protein) CELDRDPEGKDFQQPYTSFVQTKQNRDGLYALLRNTENPRMHFYQELQSDMYCTTITDGNSLAPFVNWDLGILNDHGRADEDEVSGIAGYYFVYNRLNQQANAFVNNTEAALQNQVYKNSTEIANAKSFLAEGKVLQALAIWRLMDRFSFHESVTEVNSGAKDLGVILLKEYNPGYIGPRATKAQCYDYILSRLSEAIEVLPENRESVLYVSRDYAYALRARIYLALGEYGKAAADAKMVVDKYPLIGAADASEFENIYRSDANNPEIIFRGFASATLGSFTATTLNGAAPAGKDIKYNPSAVPFQWVVDLYENEDFRKSVYIAKVVKKDKGYLVNKFLEDKAYRDVQDKPNLKVGARYFSVAEVYLILVESALQTGDTPTAEKYLKALSKARGAEVSVVNMEALQAERTRELIGEGSRLRDMVRWSIPNNHDAFETQPGLEGFANTTPLKAQAPVGFYAYTWEFPQRDRQTNPQLIKNWPI,glycan array binding signal (z-score),[1],0.132
same,glycan array binding signal (z-score),[2],-0.589
same,glycan array binding signal (z-score),[3],0.033
same,glycan array binding signal (z-score),[4],-0.192
same,glycan array binding signal (z-score),[5],-0.344
same,glycan array binding signal (z-score),[6],-0.595
same,glycan array binding signal (z-score),[7],-0.631
same,glycan array binding signal (z-score),[8],-0.306
same,glycan array binding signal (z-score),[9],0.643
same,glycan array binding signal (z-score),[10],0.224
same,glycan array binding signal (z-score),[11],-0.086
same,glycan array binding signal (z-score),[12],-0.094
same,glycan array binding signal (z-score),[13],0.332
same,glycan array binding signal (z-score),[14],-0.21
same,glycan array binding signal (z-score),[15],-0.121
same,glycan array binding signal (z-score),[16],-0.42
same,glycan array binding signal (z-score),[17],-0.54
same,glycan array binding signal (z-score),[18],-0.615
same,glycan array binding signal (z-score),[19],-0.068
same,glycan array binding signal (z-score),[20],0.146
same,glycan array binding signal (z-score),[21],-0.626
same,glycan array binding signal (z-score),[22],0.62
same,glycan array binding signal (z-score),[23],0.505
same,glycan array binding signal (z-score),[24],0.154
same,glycan array binding signal (z-score),[25],-0.843
same,glycan array binding signal (z-score),[26],0.234
same,glycan array binding signal (z-score),[27],-0.142
same,glycan array binding signal (z-score),[28],-0.022
same,glycan array binding signal (z-score),[29],0.038
same,glycan array binding signal (z-score),[30],-0.056
same,glycan array binding signal (z-score),[31],-0.395
same,glycan array binding signal (z-score),[32],-0.892
same,glycan array binding signal (z-score),[33],-0.178
same,glycan array binding signal (z-score),[34],0.03
same,glycan array binding signal (z-score),[35],2.85
same,glycan array binding signal (z-score),[36],-0.631
same,glycan array binding signal (z-score),[37],-0.863
same,glycan array binding signal (z-score),[38],0.304
same,glycan array binding signal (z-score),[39],-0.484
same,glycan array binding signal (z-score),[40],-0.326
same,glycan array binding signal (z-score),[41],-0.25
same,glycan array binding signal (z-score),[42],-0.369
same,glycan array binding signal (z-score),[43],0.612
same,glycan array binding signal (z-score),[44],-0.833
same,glycan array binding signal (z-score),[45],0.128

# Some of the entries so far, bar-delimited:
binder | measurement | setting | value
PX15642A-pgi-501-20-501 (Parabacteroides gingivalis) (protein) CELDRDPEGKDFQQPYTSFVQTKQNRDGLYALLRNTENPRMHFYQELQSDMYCTTITDGNSLAPFVNWDLGILNDHGRADEDEVSGIAGYYFVYNRLNQQANAFVNNTEAALQNQVYKNSTEIANAKSFLAEGKVLQALAIWRLMDRFSFHESVTEVNSGAKDLGVILLKEYNPGYIGPRATKAQCYDYILSRLSEAIEVLPENRESVLYVSRDYAYALRARIYLALGEYGKAAADAKMVVDKYPLIGAADASEFENIYRSDANNPEIIFRGFASATLGSFTATTLNGAAPAGKDIKYNPSAVPFQWVVDLYENEDFRKSVYIAKVVKKDKGYLVNKFLEDKAYRDVQDKPNLKVGARYFSVAEVYLILVESALQTGDTPTAEKYLKALSKARGAEVSVVNMEALQAERTRELIGEGSRLRDMVRWSIPNNHDAFETQPGLEGFANTTPLKAQAPVGFYAYTWEFPQRDRQTNPQLIKNWPI | glycan array binding signal (z-score) | [38] | 0.304
same | glycan array binding signal (z-score) | [39] | -0.484
same | glycan array binding signal (z-score) | [40] | -0.326

# From the supplement of paper PMC8728848
